# From PubChem BioAssay AID445 (National Center for Advancing Translational Sciences (NCATS), 2006)
# The list shows a part of the results. Further columns of the screen follow, without active or inactive calls. Compounds called inactive in the main read-out are mostly missing here. The note in brackets gives the kind of curve behind each potency; many fits are weak.
# Experiment: IkB Signaling
# Details: ABC-DLBCL IkBa-CBG/CBR dual luciferase ratio (green luciferase fused to IkBa over red control in OCI-Ly3 lymphoma cells), 4 h
# Summary of the method: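 Curves were fitted separately to fusion (green), unfused (red) and ratio luminescence, then classed by r2, magnitude and activity. Cells: OCI-Ly3, 4 h compound plus doxycycline at 37C; 10 uM MG-132 defined full response.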
# [1] = measured here: control luc red channel unless noted
# [2] = measured here: IkB-luc green channel
# [3] = measured here: control luc red channel
structure (smiles),measurement,setting,value
Cc1ccn2c(Nc3ccc(C(C)C)cc3)c(-c3cccnc3)nc2c1,AC50,[1],"25.1 µM [falling, partial curve]"
Cc1cccc2cc(CN(CCCO)C(=O)Nc3cccc(Cl)c3)c(=O)[nH]c12,AC50,[1],"12.6 µM [falling, partial curve]"
Cc1cccc(C(=O)Nc2ccc3nc(SCCOc4ccccc4)sc3c2)c1,AC50,[1],"0.0794 µM [falling, full curve, poor fit]"
COc1ccc(C2C=C(c3ccccc3)Nc3nc(NC(=O)/C=C/c4ccccc4Cl)nn32)cc1 (configuration not stated),AC50,[1],"5.01 µM [rising, partial curve]"
CCc1cnc2c(c1SCC(=O)NCc1ccc(F)cc1)c(=O)n(C)c(=O)n2C,AC50,[2],"7.94 µM [rising, full curve]"
same,AC50,[3],"5.01 µM [rising, full curve, poor fit]"
Nc1ncc(S(=O)(=O)Nc2ccc(F)cc2F)cn1,AC50,[1],"25.1 µM [falling, single point]"
COc1ccc(Cl)cc1NC(=O)Cn1c(=O)c(-c2ccccc2NC(C)=O)nc2ccccc21,AC50,[1],"0.158 µM [rising, full curve]"
CCOC(=O)c1c(NC(=O)COc2cccc(C)c2C)sc(C(C)=O)c1C,AC50,[1],"0.501 µM [falling, full curve, poor fit]"
OC(COc1ccc(Cl)cc1)CN1CCCCC1 (configuration not stated),AC50,[1],"12.6 µM [rising, partial curve]"
COC(=O)c1ccccc1NC(=O)Cn1c(=O)cc(C)c2c(C)nn(C)c21,AC50,[1],"3.16 µM [falling, partial curve]"
Cc1ccc(Cn2nnc3c(=O)[nH]c(C4CCN(S(=O)(=O)c5ccc(C)cc5)CC4)nc32)cc1,AC50,[2],"25.1 µM [falling, single point]"
same,AC50,[3],"25.1 µM [falling, single point]"
Cc1ccc(C)c(Cn2c(C(=O)O)c(CNCc3cccs3)c3ccccc32)c1,AC50,[1],"39.8 µM [falling, single point]"
CC(=O)Nc1c(C)nn(-c2ccccc2)c1N1CCC(C(=O)NCc2ccccc2Cl)CC1,AC50,[1],"0.0398 µM [falling, full curve, poor fit]"
CN(C)S(=O)(=O)c1ccc2c(c1)/C(=C/c1cc3c([nH]1)CCCC3)C(=O)N2,AC50,[1],"15.8 µM [falling, partial curve, poor fit] [measured here: IkB-luc green channel]"
COc1ccc(CCN2C(=O)c3[nH]nc(-c4ccccc4O)c3C2c2ccc(OC)c(OC)c2)cc1 (configuration not stated),AC50,[1],"15.8 µM [falling, partial curve]"
CC(c1ccco1)N(C(=O)CSc1ccc(Br)cc1)c1ccccn1 (configuration not stated),AC50,[1],"25.1 µM [falling, single point]"
O=C(COc1ccccc1Cl)Nc1ccc2nc(SCC(=O)N3CCCC3)sc2c1,AC50,[1],"15.8 µM [falling, partial curve]"
COc1ccc(-c2cc(-c3ccccc3)nc(SCC(=O)Nc3ccccc3F)c2C#N)cc1,AC50,[1],"20 µM [rising, partial curve]"
CCOC(=O)C1=C(CS(=O)(=O)c2ccc(OC)c(Cl)c2)NC(=O)NC1c1cccc(OC)c1 (configuration not stated),AC50,[1],"0.316 µM [falling, full curve, poor fit]"
N#C/C(=C(/O)COC(=O)CCc1ccc(S(=O)(=O)N2CCOCC2)cc1)c1nc2ccccc2[nH]1,AC50,[2],"25.1 µM [rising, partial curve]"
same,AC50,[3],"6.31 µM [falling, partial curve]"
O=C(CCCc1ccccc1)NC1CC(=O)N(c2ccc(F)cc2)C1 (configuration not stated),AC50,[1],"6.31 µM [rising, single point]"
CCc1cccc(NC(=O)c2ccc(NC(=O)N3CCSc4ncccc43)cc2)c1,AC50,[1],"25.1 µM [falling, partial curve]"
Cc1ccc(S(=O)(=O)Nc2cc3c(cc2N2CCOCC2)n(C)c(=O)n3C)cc1,AC50,[1],"10 µM [rising, partial curve]"
Cc1ccc(NC(=O)N2CCN(c3cc(-c4noc(C)n4)ccc3C)CC2)c(F)c1,AC50,[1],"25.1 µM [falling, single point]"
Cn1c(NCc2ccco2)nc2ccccc21,AC50,[1],"10 µM [falling, partial curve]"
COC(=O)c1cc(C)nc2c1c(=O)nc(SCc1ccccc1C)n2C1CC1,AC50,[1],"15.8 µM [falling, single point]"
Cc1ccc(C(=O)NCC(c2ccc3c(c2)OCO3)N2CCOCC2)cc1 (configuration not stated),AC50,[1],"10 µM [rising, partial curve]"
Cc1ccc(Cl)cc1NC(=O)Nc1cccc(OCc2cc(=O)n3ccccc3n2)c1,AC50,[1],"0.501 µM [falling, single point]"
COc1ccc(N2CCN(C(=O)C3CCCN(S(=O)(=O)c4cccc5cccnc45)C3)CC2)cc1 (configuration not stated),AC50,[1],"10 µM [falling, partial curve]"
COc1ccc(-n2c(-c3ccco3)nc3c(cnn3-c3ccccc3Cl)c2=O)cc1,AC50,[1],"31.6 µM [falling, single point]"
COc1ccc(OC)c(C2=NS(=O)(=O)N(C)C(C(=O)Nc3ccc(F)cc3F)=C2)c1,AC50,[1],"25.1 µM [falling, single point]"
O=C(CSc1cn(CC(=O)N2CCCCC2)c2ccccc12)Nc1ccccc1,AC50,[1],"0.398 µM [rising, full curve, poor fit]"
O=C(O)CCc1ccc(-c2ccccc2)n1Cc1ccco1,AC50,[1],"12.6 µM [falling, single point] [measured here: IkB-luc green channel]"
O=C(Cn1c(=O)n(-c2ccccc2)c(=O)c2c3c(sc21)CCCC3)Nc1ccc(F)cc1F,AC50,[2],"31.6 µM [rising, single point]"
same,AC50,[3],"15.8 µM [falling, partial curve]"
O=C(NCc1noc2ccccc12)N1CCN(c2ccccc2)CC1,AC50,[1],"1.58 µM [rising, partial curve, poor fit]"
CCOc1ccccc1NC(=O)CC1Nc2cc(C)c(C)cc2NC1=O (configuration not stated),AC50,[1],"3.16 µM [falling, full curve]"
CC1CCN(c2nn3c(=O)c(C(=O)NC(C)C)cnc3s2)CC1,AC50,[1],"12.6 µM [rising, partial curve]"
COc1ccc(OC)c(CNS(=O)(=O)c2ccc(-c3coc(C)n3)cc2)c1,AC50,[1],"0.316 µM [rising, full curve, poor fit]"
CC(=O)c1cc(-c2ccccc2)n(CC(=O)Nc2ccc(C)c(C)c2)c1C,AC50,[1],"39.8 µM [falling, single point]"
CCOc1ccc(CNC(=O)CS(=O)(=O)c2cccc3nsnc23)cc1,AC50,[1],"1 µM [rising, full curve]"
CN(C)/C=N/c1sc2c(c1C#N)CCC2,AC50,[1],"39.8 µM [rising, single point]"
COc1ccccc1-c1noc(-c2ccc(NC3CCCC3)c([N+](=O)[O-])c2)n1,AC50,[1],"25.1 µM [falling, single point]"
O=C(CN1CCc2ccccc2C1)Nc1ccccc1N1CCCCCC1,AC50,[1],"15.8 µM [falling, partial curve]"
Cc1cc(=O)n(Cc2ccccc2)c2c1c(C)nn2C,AC50,[1],"6.31 µM [rising, single point]"
Cc1ccccc1-n1c(SC/C(O)=C(\C#N)c2nc3ccccc3[nH]2)nnc1-c1ccncc1,AC50,[1],"15.8 µM [falling, partial curve]"
Cc1ccc(Nc2nnc(-c3ccc(C)c(S(=O)(=O)N4CCOCC4)c3)c3ccccc23)cc1,AC50,[1],"3.16 µM [falling, partial curve]"
CCC(=O)C1=C(c2ccc(OC)c(OC)c2)N(C(=O)CC)n2c(nnc2-c2ccc(C)cc2)S1,AC50,[1],"15.8 µM [falling, partial curve]"
CCOC(=O)c1ccc(NC(=O)CSc2nc3ccccc3c(=O)n2CCC(=O)NC2CCCCC2)cc1,AC50,[1],"7.94 µM [rising, single point]"
CC1CN(S(=O)(=O)c2cccc(C(=O)OCc3cc(=O)oc4cc(O)ccc34)c2)CC(C)O1 (configuration not stated),AC50,[1],"15.8 µM [falling, partial curve]"
COc1ccc(Cl)cc1NC(=O)Cn1ccn(-c2cc(C)cc(C)c2)c(=O)c1=O,AC50,[1],"0.251 µM [falling, full curve, poor fit]"
CCOc1cccc(CNC(=O)c2ccc(N3CCCC3)c(NC(=O)NCc3ccccc3)c2)c1,AC50,[1],"15.8 µM [falling, partial curve]"
Cc1ccccc1CNC(=O)CCS(=O)(=O)c1cc2c3c(c1)CCN3C(=O)CC2,AC50,[1],"50.1 nM [rising, full curve] [measured here: IkB-luc green channel]"
CCC[C@@H]1O[C@@H]2C[C@@H]3[C@@H]4CCC5=CC(=O)C=C[C@@]5(C)[C@H]4[C@H](O)C[C@@]3(C)[C@@]2(C(=O)CO)O1,AC50,[1],"0.794 nM [rising, full curve, poor fit] [measured here: IkB-luc green channel]"
CCOc1ccc(N(CC(=O)Nc2cccc(Cl)c2)S(=O)(=O)c2c(C)noc2C)cc1,AC50,[1],"6.31 µM [falling, partial curve]"
Cc1ccc(Nc2sc(C(=O)c3ccccc3)c(N)c2S(=O)(=O)c2ccccc2)cc1Cl,AC50,[1],"7.94 µM [rising, partial curve]"
Cc1cc(OC(C)C(=O)N(Cc2ccc(N(C)C)cc2)Cc2ccco2)ccc1Cl (configuration not stated),AC50,[1],"15.8 µM [falling, partial curve]"
CC1CCCN(CCCNC(=O)c2ccc3c(c2)N(Cc2ccc(Cl)cc2)C(=O)c2ccccc2S3(=O)=O)C1 (configuration not stated),AC50,[1],"20 µM [falling, single point]"
Cc1ccccc1C(=O)Nc1cccc(OCc2cc(=O)n3cccc(C)c3n2)c1,AC50,[1],"15.8 µM [falling, partial curve]"

# 4 entries picked at random from the list so far:
structure (smiles),measurement,setting,value
O=C(CSc1cn(CC(=O)N2CCCCC2)c2ccccc12)Nc1ccccc1,AC50,[1],"0.398 µM [rising, full curve, poor fit]"
Cc1ccc(NC(=O)N2CCN(c3cc(-c4noc(C)n4)ccc3C)CC2)c(F)c1,AC50,[1],"25.1 µM [falling, single point]"
COc1ccc(Cl)cc1NC(=O)Cn1c(=O)c(-c2ccccc2NC(C)=O)nc2ccccc21,AC50,[1],"0.158 µM [rising, full curve]"
CC1CN(S(=O)(=O)c2cccc(C(=O)OCc3cc(=O)oc4cc(O)ccc34)c2)CC(C)O1 (configuration not stated),AC50,[1],"15.8 µM [falling, partial curve]"
